{"sequences": {"note": "Protein sequences, listed by entry. Tags and fused reporters are not part of them. Residues count along the entry.", "UniProt Q9Z0W1, residues 32-427": "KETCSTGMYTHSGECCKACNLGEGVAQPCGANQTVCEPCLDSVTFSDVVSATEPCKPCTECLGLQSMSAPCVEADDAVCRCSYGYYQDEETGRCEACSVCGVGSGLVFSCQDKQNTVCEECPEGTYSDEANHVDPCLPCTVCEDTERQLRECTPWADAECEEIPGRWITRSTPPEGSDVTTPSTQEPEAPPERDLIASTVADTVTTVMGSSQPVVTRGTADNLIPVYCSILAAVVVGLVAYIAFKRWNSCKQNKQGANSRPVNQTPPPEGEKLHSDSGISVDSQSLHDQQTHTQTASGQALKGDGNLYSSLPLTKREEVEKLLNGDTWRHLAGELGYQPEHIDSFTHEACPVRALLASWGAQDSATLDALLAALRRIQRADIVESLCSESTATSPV", "UniProt P07174, residues 30-425": "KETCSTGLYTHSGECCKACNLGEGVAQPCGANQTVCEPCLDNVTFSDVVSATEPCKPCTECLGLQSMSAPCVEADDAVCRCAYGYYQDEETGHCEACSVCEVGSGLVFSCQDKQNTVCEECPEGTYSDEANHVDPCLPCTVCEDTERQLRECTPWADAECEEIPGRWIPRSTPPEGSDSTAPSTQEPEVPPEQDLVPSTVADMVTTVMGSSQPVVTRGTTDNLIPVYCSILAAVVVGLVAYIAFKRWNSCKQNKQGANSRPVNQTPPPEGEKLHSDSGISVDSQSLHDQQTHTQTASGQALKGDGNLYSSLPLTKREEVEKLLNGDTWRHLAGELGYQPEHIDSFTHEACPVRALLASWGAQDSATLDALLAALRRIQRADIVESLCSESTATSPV", "UniProt P58801": "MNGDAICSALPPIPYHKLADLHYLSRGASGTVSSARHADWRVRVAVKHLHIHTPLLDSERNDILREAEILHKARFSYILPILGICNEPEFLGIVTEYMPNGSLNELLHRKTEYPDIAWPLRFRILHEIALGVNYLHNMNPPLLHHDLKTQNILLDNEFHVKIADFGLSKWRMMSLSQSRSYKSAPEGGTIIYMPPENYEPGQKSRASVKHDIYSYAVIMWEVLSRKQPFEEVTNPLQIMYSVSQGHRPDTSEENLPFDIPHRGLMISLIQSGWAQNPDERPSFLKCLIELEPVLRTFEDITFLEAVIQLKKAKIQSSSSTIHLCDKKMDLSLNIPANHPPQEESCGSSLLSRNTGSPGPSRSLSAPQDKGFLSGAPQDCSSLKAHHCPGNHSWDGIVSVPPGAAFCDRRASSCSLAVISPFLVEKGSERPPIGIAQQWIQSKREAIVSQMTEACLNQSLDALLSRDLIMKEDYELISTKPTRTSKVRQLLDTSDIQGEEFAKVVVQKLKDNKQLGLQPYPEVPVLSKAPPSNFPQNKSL"}, "source": "paper PMC5183592", "key": {"[1]": {"target": "p75 neurotrophin receptor (p75^NTR), endogenous in mouse cerebellar granule neurons (mouse (endogenous in CGNs)) (UniProt Q9Z0W1)", "experiment": "co-IP; primary cerebellar granule neurons from p75^NTR wt mice, all proteins endogenous; 20 min (RIP2) or 30 min (RhoGDI) with BNN27, DHEA or NGF; IP of p75^NTR, blot for RIP2 or RhoGDI"}, "[2]": {"target": "p75 neurotrophin receptor (p75^NTR), wild type, transfected (UniProt P07174)", "experiment": "co-IP; MEF cells transfected with p75^NTR, endogenous RhoGDI and RIP2; untreated or 30 min BNN27 (1-100 nM), DHEA (100 nM), NGF (100 ng/ml) or E2 (100 nM) in serum-free medium; lysis in 1% Nonidet P-40, 20 mM Tris pH 7.4, 137 mM NaCl; IP with anti-p75^NTR overnight at 4°C, protein A-Sepharose; blot for RhoGDI or RIP2"}}, "note": "No constants are given. Whether binding was seen depends on the method and setting. In cells and extracts the contact can be indirect. Some binding calls cover weakened binding; strength is not graded here.", "data": [{"substance": "receptor-interacting protein 2 (RIP2), endogenous (from UniProt P58801 1-539)", "values": [{"measurement": "binding", "setting": "[1]", "value": "binds"}, {"measurement": "binding", "setting": "[2]", "value": "binds"}]}]}
